Experimental data taken from PubChem BioAssay AID256 (DTP/NCI, 2004).
The list does not hold the whole screen: it is rich in T/C values a quarter to a half above the control, in often repeated tests (any T/C) and in doses without a T/C. Further doses and runs are listed elsewhere. T/C gives the treated animals as a percentage of the vehicle group. Some entries give survivors of the animals treated and no T/C: the source files T/C as zero there, which appears to mark a toxic dose or a test without result, not a measured value. Some doses without a T/C left all or most animals alive at the check, yet need not have been tolerated: the source hardly ever lists a survival T/C far under the control, and the zero likely stands for such cases as well. Counts of survivors are from the toxicity check (mostly the fifth day) where no day follows; animals may have died later. Schedules are NCI's codes, read here as Q, the interval in days (D) or hours (H), X, the number of doses. Where survival is the endpoint, the PubChem record calls one and a half times the control and up active, and a quarter to a half above the control has no call in these data; cut-offs in other NCI protocols can differ. Some T/C values are followed by the survivors on the day toxicity was checked, most often the fifth; without a count, all were alive then. Some entries were tested several times; the values are given in rising order.

Tested on: CD2F1 mice, L1210 leukemia ip, survival T/C
Assay: NCI In Vivo Anticancer Drug Screen. Data for tumor model L1210 Leukemia (intraperitoneal) in CD2F1 (CDF1) mice
Conditions: higher T/C = longer survival
How it was run: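 In this screen, transplantable tumors were grown in mice given either the compound or its vehicle. Results were expressed as the treated measurement relative to the control measurement.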

[1] = T/C endpoint: mean survival time, dose: 400.0 mg/kg/injection, schedule: Q01DX001 (ip), vehicle: saline
[2] = T/C endpoint: mean survival time, dose: 100.0 mg/kg/injection, schedule: Q04DX003 (ip), vehicle: saline with Tween-80
[3] = T/C endpoint: mean survival time, dose: 200.0 mg/kg/injection, schedule: Q04DX003 (ip), vehicle: saline with Tween-80
[4] = T/C endpoint: mean survival time, dose: 400.0 mg/kg/injection, schedule: Q04DX003 (ip), vehicle: saline with Tween-80
[5] = T/C endpoint: mean survival time, dose: 400.0 mg/kg/injection, schedule: Q04DX002 (ip), vehicle: saline with Tween-80
[6] = T/C endpoint: mean survival time, dose: 20.0 mg/kg/injection, schedule: Q04DX003 (ip), vehicle: saline with Tween-80
[7] = T/C endpoint: mean survival time, dose: 200.0 mg/kg/injection, schedule: Q01DX009 (ip), vehicle: saline with Tween-80
[8] = T/C endpoint: mean survival time, dose: 400.0 mg/kg/injection, schedule: Q01DX009 (ip), vehicle: saline with Tween-80
[9] = T/C endpoint: mean survival time, dose: 100.0 mg/kg/injection, schedule: Q01DX009 (ip), vehicle: saline
[10] = T/C endpoint: mean survival time, dose: 200.0 mg/kg/injection, schedule: Q01DX009 (ip), vehicle: saline

For `[O-][n+]1ccccc1F`, the survivor count (T/C endpoint: mean survival time, dose: 200.0 mg/kg/injection, schedule: Q01DX001 (ip), vehicle: saline) was 0 of 6 and the survivor count [1] was 0 of 6.
In the case of `CNC1CCCCC1[N+](C)(C)C` (configuration not stated), the survivor count [2] is reported as 0 of 6, the survivor count [3] is reported as 0 of 6 and the survivor count [4] is reported as 0 of 6.
With `CO[C@@]12[C@@H]3N[C@@H]3CN1C1=C(C(=O)C(Nc3ccc(O)cc3C)=C(C)C1=O)[C@@H]2COC(N)=O` the T/C (T/C endpoint: mean survival time, dose: 12.0 mg/kg/injection, schedule: Q01DX001 (ip), vehicle: water) was 134 % of control and the T/C (T/C endpoint: mean survival time, dose: 24.0 mg/kg/injection, schedule: Q01DX001 (ip), vehicle: water) was 128 and 137 % of control [5 of 6 alive].
With `Cc1cccc(OCC2=NCCN2)c1C` the survivor count (T/C endpoint: mean survival time, dose: 100.0 mg/kg/injection, schedule: Q04DX002 (ip), vehicle: saline with Tween-80) was 1 of 3, the survivor count (T/C endpoint: mean survival time, dose: 200.0 mg/kg/injection, schedule: Q04DX002 (ip), vehicle: saline with Tween-80) was 0 of 3 and the survivor count [5] was 0 of 3.
With `CC([O-])C(=O)[O-].NCC1CCC1CN.[Pt+4]` (configuration not stated) the T/C (T/C endpoint: median survival time, dose: 3.12 mg/kg/injection, schedule: Q04DX003 (ip), vehicle: saline) was 125 % of control, the T/C (T/C endpoint: median survival time, dose: 6.25 mg/kg/injection, schedule: Q04DX003 (ip), vehicle: saline) was 144 % of control and the survivor count (T/C endpoint: median survival time, dose: 50.0 mg/kg/injection, schedule: Q04DX003 (ip), vehicle: saline) was 6 of 6. The survivor count (T/C endpoint: median survival time, dose: 100.0 mg/kg/injection, schedule: Q04DX003 (ip), vehicle: saline) was 6 of 6 and the survivor count (T/C endpoint: median survival time, dose: 200.0 mg/kg/injection, schedule: Q04DX003 (ip), vehicle: saline) was 0 of 6.
For `C[CH2][Pb]([CH2]C)([CH2]C)[O]C(=O)C=C1CCCC1`, the survivor count [6] was 0 of 6.
With `CC(=O)OC(C)(C)/C=C/C(=O)[C@](C)(O)[C@H]1[C@H](O)C[C@@]2(C)[C@@H]3CC=C4[C@@H](CC[C@H](O)C4(C)C)[C@]3(CO)C(=O)C[C@]12C` the survivor count (T/C endpoint: mean survival time, dose: 5.0 mg/kg/injection, schedule: Q04DX003 (ip), vehicle: saline with Tween-80) was 0 of 6, the survivor count (T/C endpoint: mean survival time, dose: 10.0 mg/kg/injection, schedule: Q04DX003 (ip), vehicle: saline with Tween-80) was 0 of 6 and the survivor count [6] was 0 of 6. The survivor count [2] was 0 of 6, the survivor count [3] was 0 of 6 and the survivor count [4] was 0 of 6.
For `CN(C)Cc1cc(CN(C)C)c(O)c(CN(C)C)c1`, the survivor count (T/C endpoint: mean survival time, dose: 400.0 mg/kg/injection, schedule: Q04DX003 (ip), vehicle: saline) was 3 of 6.
With `CC1CCC2(C)CCC3(C)C4=CCC5C(C)(C)C(O)CCC5(C)C4CCC3(C)C2C1C` (configuration not stated) the survivor count (T/C endpoint: mean survival time, dose: 100.0 mg/kg/injection, schedule: Q04DX003 (ip), vehicle: saline) was 6 of 6.
For `Cc1cc(=O)cc(CC(=O)C(=O)O)o1`, the survivor count (T/C endpoint: mean survival time, dose: 200.0 mg/kg/injection, schedule: Q01DX009 (ip), vehicle: saline sonified) was 3 of 6 and the survivor count (T/C endpoint: mean survival time, dose: 400.0 mg/kg/injection, schedule: Q01DX009 (ip), vehicle: saline sonified) was 4 of 6.
With `N#CC(Cl)(C#N)c1ccc(C(Cl)(C#N)C#N)cc1` the survivor count [7] was 3 of 6 and the survivor count [8] was 0 of 6.
With `COC12C(COC(C)=O)C3=C(C(=O)C(C)=C(N4CCCCC4)C3=O)N1CC1NC12` (configuration not stated) the T/C (T/C endpoint: mean survival time, dose: 12.0 mg/kg/injection, schedule: Q01DX001 (ip), vehicle: distilled water + Tween-80) was 136 and 144 % of control, the T/C (T/C endpoint: mean survival time, dose: 24.0 mg/kg/injection, schedule: Q01DX001 (ip), vehicle: distilled water + Tween-80) was 134 and 138 % of control and the survivor count (T/C endpoint: mean survival time, dose: 48.0 mg/kg/injection, schedule: Q01DX001 (ip), vehicle: distilled water + Tween-80) was 2 of 6.
`COc1ccc(N(C)C/C(CN)=N/O)cc1` was tested, and the survivor count (T/C endpoint: mean survival time, dose: 400.0 mg/kg/injection, schedule: Q01DX001 (ip), vehicle: Klucel (hydroxypropylcellulose) (HPC)) was 3 of 6.
With `O=[N+]([O-])c1ccccc1C[P+](c1ccccc1)(c1ccccc1)c1ccccc1` the survivor count [2] was 1 of 6.
With `COc1ccc(NC(=O)Nc2ccc(C)cc2C)cc1` the survivor count [8] was 6 of 6.
`NCc1ccc([N+](=O)[O-])cc1Cl` was tested, and the survivor count [7] was 1 of 3.
`O=C1c2ccccc2C(=O)C1c1cc2ccccc2cn1` was tested, and the survivor count (T/C endpoint: mean survival time, dose: 400.0 mg/kg/injection, schedule: Q01DX001 (ip), vehicle: saline with Tween-80) was 6 of 6.
With `COc1cc(C=C(c2ccc(N(C)C)cc2)c2ccc(N(C)C)cc2)c(OC)c2ccccc12` the survivor count [5] was 3 of 3.
For `O=C(O)c1cc(N2CCCCC2)ccn1`, the survivor count [1] was 0 of 6.
`C/C=C(\C)C1(CCC)C(=O)NC(=S)NC1=O` was tested, and the survivor count (T/C endpoint: mean survival time, dose: 300.0 mg/kg/injection, schedule: Q01DX001 (ip), vehicle: other) was 1 of 6.
In the case of `NC(=O)NN=C1CCC1`, the survivor count (T/C endpoint: mean survival time, dose: 150.0 mg/kg/injection, schedule: Q01DX001 (ip), vehicle: saline) is reported as 3 of 6 and the survivor count (T/C endpoint: mean survival time, dose: 300.0 mg/kg/injection, schedule: Q01DX001 (ip), vehicle: saline) is reported as 2 of 6.
`OC1CCC(CC2CCCCC2)CC1` (configuration not stated) was tested, and the survivor count [8] was 0 of 6.
With `Cc1cc2c(=O)c(C)c[nH]c2cc1Cl` the survivor count (T/C endpoint: mean survival time, dose: 200.0 mg/kg/injection, schedule: Q01DX009 (ip), vehicle: Klucel (hydroxypropylcellulose) (HPC)) was 3 of 3.
`CN(CO)c1nc(N(C)CO)nc(N(C)CO)n1` was tested, and the T/C [9] was 126 % of control, the T/C [10] was 129 % of control and the survivor count [10] was 6 of 6. The survivor count (T/C endpoint: mean survival time, dose: 400.0 mg/kg/injection, schedule: Q01DX009 (ip), vehicle: saline) was 1 of 6.
`C[NH-].[Cl][Pt+2][Cl].[NH-]C1CC1` was tested, and the T/C (T/C endpoint: mean survival time, dose: 6.25 mg/kg/injection, schedule: Q04DX003 (ip), vehicle: saline with Tween-80) was 129 % of control, the T/C (T/C endpoint: mean survival time, dose: 12.5 mg/kg/injection, schedule: Q04DX003 (ip), vehicle: saline) was 131 % of control and the survivor count (T/C endpoint: mean survival time, dose: 25.0 mg/kg/injection, schedule: Q04DX003 (ip), vehicle: saline with Tween-80) was 6 of 6. For the same compound, the survivor count (T/C endpoint: mean survival time, dose: 50.0 mg/kg/injection, schedule: Q04DX003 (ip), vehicle: saline with Tween-80) was 2 of 6, the survivor count [2] was 2 of 6 and the survivor count [3] was 2 of 6.
For `C=C(NC(=O)C(=C)NC(=O)c1csc(C2=NC3c4csc(n4)C4NC(=O)c5csc(n5)C(C(C)(O)C(C)O)NC(=O)C5CSC(=N5)/C(=C/C)NC(=O)C(C(C)O)NC(=O)c5csc(n5)C3(CC2)NC(=O)C(C)NC(=O)C(=C)NC(=O)C(=C)NC(=O)C(C(C)C)NC2C=Cc3c(C(C)O)cc(nc3C2O)C(=O)OC4C)n1)C(N)=O` (configuration not stated), the T/C (T/C endpoint: mean survival time, dose: 25.0 mg/kg/injection, schedule: Q01DX009 (ip), vehicle: saline) was 125 % of control, the T/C (T/C endpoint: mean survival time, dose: 50.0 mg/kg/injection, schedule: Q01DX009 (ip), vehicle: saline) was 131 % of control and the T/C [9] was 137 % of control.
In the case of `c1cc[c]([Pb]([c]2ccccc2)([c]2ccccc2)[n]2cccc2)cc1`, the survivor count (T/C endpoint: mean survival time, dose: 25.0 mg/kg/injection, schedule: Q01DX009 (ip), vehicle: acetone) is reported as 0 of 6 and the survivor count (T/C endpoint: mean survival time, dose: 50.0 mg/kg/injection, schedule: Q04DX003 (ip), vehicle: acetone) is reported as 4 of 6.
In the case of `Nc1cc(NC(c2ccccc2)c2ccccc2)c2[nH]cnc2n1`, the survivor count (T/C endpoint: mean survival time, dose: 400.0 mg/kg/injection, schedule: Q01DX001 (ip), vehicle: other) is reported as 1 of 6.
With `COc1cccc2c1C(=O)c1c(O)c3c(c(O)c1C2=O)CC(O)(/C(C)=N/NC(=O)CCC(=O)N/N=C(\C)C1(O)Cc2c(O)c4c(c(O)c2C(OC2CC(N)C(O)C(C)O2)C1)C(=O)c1c(OC)cccc1C4=O)CC3OC1CC(N)C(O)C(C)O1` (configuration not stated) the T/C (T/C endpoint: mean survival time, dose: 6.25 mg/kg/injection, schedule: Q01DX009 (ip), vehicle: water) was 127 % of control, the T/C (T/C endpoint: mean survival time, dose: 12.5 mg/kg/injection, schedule: Q01DX009 (ip), vehicle: water) was 145 % of control and the survivor count (T/C endpoint: mean survival time, dose: 25.0 mg/kg/injection, schedule: Q01DX009 (ip), vehicle: water) was 6 of 6.
